From PubChem BioAssay AID272 (DTP/NCI, 2004)
This continues a long series; more values of the same kind are listed elsewhere. Records with an inconclusive call do not appear. How the source made its calls: active means survival T/C of 150% or more; inactive means T/C below 125% in these data.

System: Lewis lung carcinoma i.m., BDF1 mice, T/C %
Test: NCI In Vivo Anticancer Drug Screen. Data for tumor model Lewis Lung Carcinoma (intramuscular) in B6D2F1 (BDF1) mice
Experimental: The antitumor activity of compounds was measured in mice bearing transplantable tumors. Survival or tumor size were measured and the results are expressed as the measurement made in the treated group (T) divided by the measurement made in the vehicle treated control group (C). The tumor model used in this assay is Lewis Lung Carcinoma (intramuscular) in B6D2F1 (BDF1) mice

Measured: T/C

CCc1nc(N)nc(N)c1-c1ccc(Cl)cc1
inactive: endpoint: median survival time, dose: 4.0 mg/kg/injection, schedule: Q01DX009 (oral), vehicle: Klucel (hydroxypropylcellulose) (HPC), higher = longer survival 111 % of control | endpoint: median survival time, dose: 4.0 mg/kg/injection, schedule: Q06HX012 (ip), vehicle: Klucel (hydroxypropylcellulose) (HPC), higher = longer survival 121 % of control | endpoint: median survival time, dose: 8.0 mg/kg/injection, schedule: Q01DX009 (sc), vehicle: Klucel (hydroxypropylcellulose) (HPC), higher = longer survival 119 % of control | endpoint: median survival time, dose: 8.0 mg/kg/injection, schedule: Q06HX008 (ip), vehicle: Klucel (hydroxypropylcellulose) (HPC), higher = longer survival 111 % of control | endpoint: median survival time, dose: 16.0 mg/kg/injection, schedule: Q01DX001 (oral), vehicle: Klucel (hydroxypropylcellulose) (HPC), higher = longer survival 119 % of control | endpoint: median survival time, dose: 16.0 mg/kg/injection, schedule: Q01DX009 (ip), vehicle: Klucel (hydroxypropylcellulose) (HPC), higher = longer survival 114 % of control | endpoint: median survival time, dose: 16.0 mg/kg/injection, schedule: Q06HX004 (ip), vehicle: Klucel (hydroxypropylcellulose) (HPC), higher = longer survival 114 % of control | endpoint: median survival time, dose: 16.0 mg/kg/injection, schedule: Q06HX008 (ip), vehicle: Klucel (hydroxypropylcellulose) (HPC), higher = longer survival 114 % of control | endpoint: median survival time, dose: 16.0 mg/kg/injection, schedule: Q06HX012 (ip), vehicle: Klucel (hydroxypropylcellulose) (HPC), higher = longer survival 123 % of control | endpoint: median survival time, dose: 25.0 mg/kg/injection, schedule: Q01DX011 (ip), vehicle: steriod suspending solution, higher = longer survival 110 % of control | endpoint: median survival time, dose: 32.0 mg/kg/injection, schedule: Q01DX009 (ip), vehicle: Klucel (hydroxypropylcellulose) (HPC), higher = longer survival 119 % of control | endpoint: median survival time, dose: 32.0 mg/kg/injection, schedule: Q01DX009 (oral), vehicle: Klucel (hydroxypropylcellulose) (HPC), higher = longer survival 111 % of control | endpoint: median survival time, dose: 32.0 mg/kg/injection, schedule: Q01DX009 (sc), vehicle: Klucel (hydroxypropylcellulose) (HPC), higher = longer survival 123 % of control | endpoint: median survival time, dose: 64.0 mg/kg/injection, schedule: Q01DX001 (ip), vehicle: Klucel (hydroxypropylcellulose) (HPC), higher = longer survival 123 % of control | endpoint: median survival time, dose: 64.0 mg/kg/injection, schedule: Q08DX002 (ip), vehicle: Klucel (hydroxypropylcellulose) (HPC), higher = longer survival 121 % of control | endpoint: median survival time, dose: 128.0 mg/kg/injection, schedule: Q01DX001 (sc), vehicle: Klucel (hydroxypropylcellulose) (HPC), higher = longer survival 119 % of control | endpoint: median survival time, dose: 128.0 mg/kg/injection, schedule: Q04DX003 (ip), vehicle: Klucel (hydroxypropylcellulose) (HPC), higher = longer survival 119 % of control
114 % of control: endpoint: mean tumor weight, dose: 32.0 mg/kg/injection, schedule: Q08DX002 (ip), vehicle: Klucel (hydroxypropylcellulose) (HPC), higher = larger tumour
